Measured values published in PubChem BioAssay AID248 (DTP/NCI, 2004).
The list does not hold the whole screen: it gathers tests that were run many times, whatever their T/C, doses with no T/C, and many T/C values between a quarter and a half above the control. Other doses and runs of a compound stand elsewhere. T/C gives the treated animals as a percentage of the vehicle group. Where survival is the endpoint, this PubChem deposit counts one and a half times the control or more as active, and values a quarter to a half above the control carry no call in these data; other NCI protocols may use other cut-offs. Schedules are NCI's codes, taken here to give the interval after Q, in days (D) or hours (H), and the number of doses after X. Some T/C values carry the count of animals alive at the toxicity check (mostly the fifth day); where none is given, no animal had died by that day. Some doses were run more than once; their values stand side by side, smallest first. Marks such as (2×) give the number of equal values in this list. Some schedule codes hold Z or #, which are not explained here.

System: L1210 leukemia ip in BDF1 mice, survival T/C
Assay: NCI In Vivo Anticancer Drug Screen. Data for tumor model L1210 Leukemia (intraperitoneal) in B6D2F1 (BDF1) mice
Settings: T/C endpoint: mean survival time, higher T/C = longer survival

`CN(C)/N=N/c1nc[nH]c1C(N)=O` was tested, and the T/C (dose: 3.75 mg/kg/injection, schedule: Q01DX009 (ip), vehicle: saline with Tween-80) was 134 % of control, the T/C (dose: 11.4 mg/kg/injection, schedule: Q01DX009 (ip), vehicle: saline with Tween-80, evaluated on day 5) was 105 and 116 % of control and the T/C (dose: 11.4 mg/kg/injection, schedule: Q01DX009 (ip), vehicle: saline with Tween-80, evaluated on day 60) was 105 and 116 % of control. For the same molecule, the T/C (dose: 12.5 mg/kg/injection, schedule: Q01DX Z (ip), vehicle: saline) was 128 % of control, the T/C (dose: 12.5 mg/kg/injection, schedule: Q#A X Z (ip), vehicle: carboxymethylcellulose (CMC)) was 134 % of control and the T/C (dose: 18.0 mg/kg/injection, schedule: Q01DX Z (ip), vehicle: carboxymethylcellulose (CMC)) was 125 % of control. The T/C (dose: 21.0 mg/kg/injection, schedule: Q01DX015 (ip), vehicle: carboxymethylcellulose (CMC), evaluated on day 5) was 105 and 106 % of control, the T/C (dose: 21.0 mg/kg/injection, schedule: Q01DX015 (ip), vehicle: carboxymethylcellulose (CMC), evaluated on day 45) was 105 and 106 % of control and the T/C (dose: 22.7 mg/kg/injection, schedule: Q01DX009 (ip), vehicle: saline with Tween-80, evaluated on day 5) was 114 and 164 % of control. The T/C (dose: 22.7 mg/kg/injection, schedule: Q01DX009 (ip), vehicle: saline with Tween-80, evaluated on day 60) was 114 and 164 % of control, the T/C (dose: 25.0 mg/kg/injection, schedule: Q01DX009 (ip), vehicle: carboxymethylcellulose (CMC)) was 107, 117, 119, 124 % of control and the T/C (dose: 25.0 mg/kg/injection, schedule: Q01DX009 (ip), vehicle: saline with Tween-80) was 134 % of control. For the same molecule, the T/C (dose: 25.0 mg/kg/injection, schedule: Q01DX Z (im), vehicle: carboxymethylcellulose (CMC)) was 130 % of control, the T/C (dose: 25.0 mg/kg/injection, schedule: Q01DX Z (ip), vehicle: carboxymethylcellulose (CMC)) was 140 % of control and the T/C (dose: 25.0 mg/kg/injection, schedule: Q01DX Z (sc), vehicle: carboxymethylcellulose (CMC)) was 128 % of control. The T/C (dose: 25.0 mg/kg/injection, schedule: Q#A X034 (ip), vehicle: carboxymethylcellulose (CMC)) was 126 % of control, the T/C (dose: 25.0 mg/kg/injection, schedule: Q#A X Z (ip), vehicle: carboxymethylcellulose (CMC)) was 130 and 146 % of control [4 of 6 alive] and the T/C (dose: 32.0 mg/kg/injection, schedule: Q01DX015 (ip), vehicle: carboxymethylcellulose (CMC), evaluated on day 5) was 104 and 118 % of control. For the same molecule, the T/C (dose: 32.0 mg/kg/injection, schedule: Q01DX015 (ip), vehicle: carboxymethylcellulose (CMC), evaluated on day 45) was 104 and 118 % of control, the T/C (dose: 37.5 mg/kg/injection, schedule: Q01DX Z (ip), vehicle: carboxymethylcellulose (CMC)) was 127 % of control and the T/C (dose: 39.0 mg/kg/injection, schedule: Q01DX019 (ip), vehicle: steroid suspending solution, evaluated on day 5) was 134 % of control. The T/C (dose: 39.0 mg/kg/injection, schedule: Q01DX019 (ip), vehicle: steroid suspending solution, evaluated on day 30) was 131 % of control, the T/C (dose: 45.5 mg/kg/injection, schedule: Q01DX009 (ip), vehicle: saline with Tween-80, evaluated on day 5) was 114 and 132 % of control and the T/C (dose: 45.5 mg/kg/injection, schedule: Q01DX009 (ip), vehicle: saline with Tween-80, evaluated on day 60) was 114 and 132 % of control. The T/C (dose: 47.0 mg/kg/injection, schedule: Q01DX015 (ip), vehicle: carboxymethylcellulose (CMC), evaluated on day 5) was 113, 119, 123 % of control, the T/C (dose: 47.0 mg/kg/injection, schedule: Q01DX015 (ip), vehicle: carboxymethylcellulose (CMC), evaluated on day 45) was 113 [9 of 10 alive], 120, 123 % of control and the T/C (dose: 47.5 mg/kg/injection, schedule: Q01DX009 (ip), vehicle: carboxymethylcellulose (CMC)) was 125, 130, 131 % of control. For the same molecule, the T/C (dose: 49.0 mg/kg/injection, schedule: Q01DX009 (ip), vehicle: carboxymethylcellulose (CMC)) was 125, 130, 142, 144 % of control, the T/C (dose: 49.5 mg/kg/injection, schedule: Q01DX005 (ip), vehicle: water, evaluated on day 5) was 127 % of control and the T/C (dose: 49.5 mg/kg/injection, schedule: Q01DX005 (ip), vehicle: water, evaluated on day 30) was 127 % of control. For the same molecule, the T/C (dose: 50.0 mg/kg/injection, schedule: Q01DX005 (ip), vehicle: other) was 131 % of control, the T/C (dose: 50.0 mg/kg/injection, schedule: Q01DX006 (iv), vehicle: carboxymethylcellulose (CMC)) was 136 % of control and the T/C (dose: 50.0 mg/kg/injection, schedule: Q01DX009 (ip), vehicle: Klucel (hydroxypropylcellulose) (HPC)) was 103, 106, 109 [5 of 6 alive], 132 % of control. The T/C (dose: 50.0 mg/kg/injection, schedule: Q01DX009 (ip), vehicle: other) was 127 % of control, the T/C (dose: 50.0 mg/kg/injection, schedule: Q01DX009 (ip), vehicle: saline with Tween-80) was 127 % of control and the T/C (dose: 50.0 mg/kg/injection, schedule: Q01DX009 (ip), vehicle: water) was 136 and 144 % of control. For the same molecule, the T/C (dose: 50.0 mg/kg/injection, schedule: Q01DX010 (ip), vehicle: clinical formulation) was 135 and 137 % of control, the T/C (dose: 50.0 mg/kg/injection, schedule: Q01DX017 (ip), vehicle: carboxymethylcellulose (CMC)) was 135 % of control and the T/C (dose: 50.0 mg/kg/injection, schedule: Q01DX Z (im), vehicle: carboxymethylcellulose (CMC)) was 141 % of control. The T/C (dose: 50.0 mg/kg/injection, schedule: Q01DX Z (ip), vehicle: saline) was 142 % of control, the T/C (dose: 50.0 mg/kg/injection, schedule: Q01DX Z (sc), vehicle: carboxymethylcellulose (CMC)) was 125 and 130 % of control and the T/C (dose: 50.0 mg/kg/injection, schedule: Q#A X034 (ip), vehicle: carboxymethylcellulose (CMC)) was 139 % of control [9 of 10 alive]. For the same molecule, the T/C (dose: 53.0 mg/kg/injection, schedule: Q01DX Z (ip), vehicle: carboxymethylcellulose (CMC)) was 126 % of control, the T/C (dose: 53.0 mg/kg/injection, schedule: Q01DX Z (ip), vehicle: saline) was 139 % of control and the T/C (dose: 60.0 mg/kg/injection, schedule: Q01DX001 (ip), vehicle: carboxymethylcellulose (CMC)) was 131 % of control. The T/C (dose: 62.5 mg/kg/injection, schedule: Q01DX005 (ip), vehicle: clinical formulation) was 101, 111 (2×), 115, 119, 128, 136, 138 % of control, the T/C (dose: 65.0 mg/kg/injection, schedule: Q01DX009 (ip), vehicle: steroid suspending solution) was 130 % of control and the T/C (dose: 65.0 mg/kg/injection, schedule: Q01DX019 (ip), vehicle: steroid suspending solution, evaluated on day 5) was 134 % of control. For the same molecule, the T/C (dose: 65.0 mg/kg/injection, schedule: Q01DX019 (ip), vehicle: steroid suspending solution, evaluated on day 30) was 131 % of control, the T/C (dose: 65.0 mg/kg/injection, schedule: Q01DX Z (ip), vehicle: steroid suspending solution) was 130 % of control and the T/C (dose: 65.0 mg/kg/injection, schedule: Q## X009 (ip), vehicle: steroid suspending solution, evaluated on day 5) was 143 % of control. The T/C (dose: 65.0 mg/kg/injection, schedule: Q## X009 (ip), vehicle: steroid suspending solution, evaluated on day 30) was 139 % of control, the T/C (dose: 67.0 mg/kg/injection, schedule: Q01DX009 (ip), vehicle: carboxymethylcellulose (CMC)) was 132 % of control and the T/C (dose: 70.0 mg/kg/injection, schedule: Q01DX015 (ip), vehicle: carboxymethylcellulose (CMC), evaluated on day 5) was 123, 126, 135 % of control. For the same molecule, the T/C (dose: 70.0 mg/kg/injection, schedule: Q01DX015 (ip), vehicle: carboxymethylcellulose (CMC), evaluated on day 45) was 123, 126, 135 % of control [7 of 8 alive], the T/C (dose: 75.0 mg/kg/injection, schedule: Q01DX Z (ip), vehicle: carboxymethylcellulose (CMC)) was 146 and 147 % of control and the T/C (dose: 75.0 mg/kg/injection, schedule: Q03DX Z (ip), vehicle: carboxymethylcellulose (CMC)) was 130 % of control. The T/C (dose: 80.0 mg/kg/injection, schedule: Q01DX Z (ip), vehicle: carboxymethylcellulose (CMC)) was 147 % of control, the T/C (dose: 80.0 mg/kg/injection, schedule: Q01DX Z (ip), vehicle: saline) was 145 % of control and the T/C (dose: 87.0 mg/kg/injection, schedule: Q07DX Z (ip), vehicle: carboxymethylcellulose (CMC)) was 131 % of control. The T/C (dose: 89.0 mg/kg/injection, schedule: Q01DX005 (ip), vehicle: water, evaluated on day 5) was 129 % of control, the T/C (dose: 89.0 mg/kg/injection, schedule: Q01DX005 (ip), vehicle: water, evaluated on day 30) was 129 % of control and the T/C (dose: 90.0 mg/kg/injection, schedule: Q01DX001 (ip), vehicle: carboxymethylcellulose (CMC)) was 136 % of control. The T/C (dose: 91.0 mg/kg/injection, schedule: Q01DX009 (ip), vehicle: saline with Tween-80, evaluated on day 5) was 126 and 137 % of control, the T/C (dose: 91.0 mg/kg/injection, schedule: Q01DX009 (ip), vehicle: saline with Tween-80, evaluated on day 60) was 126 and 137 % of control and the T/C (dose: 95.0 mg/kg/injection, schedule: Q01DX009 (ip), vehicle: carboxymethylcellulose (CMC)) was 146 % of control. For the same molecule, the T/C (dose: 97.0 mg/kg/injection, schedule: Q01DX009 (ip), vehicle: carboxymethylcellulose (CMC)) was 138, 139, 149, 161 % of control, the T/C (dose: 100.0 mg/kg/injection, schedule: Q01DX005 (ip), vehicle: other) was 136 % of control [9 of 10 alive] and the T/C (dose: 100.0 mg/kg/injection, schedule: Q01DX006 (iv), vehicle: carboxymethylcellulose (CMC)) was 146 % of control. The T/C (dose: 100.0 mg/kg/injection, schedule: Q01DX009 (ip), vehicle: Klucel (hydroxypropylcellulose) (HPC), evaluated on day 20) was 160 % of control, the T/C (dose: 100.0 mg/kg/injection, schedule: Q01DX009 (ip), vehicle: Klucel (hydroxypropylcellulose) (HPC), evaluated on day 30) was 93, 103, 104, 124, 134 [5 of 6 alive], 135, 144 (2×), 145, 148, 150, 153, 170 % of control and the T/C (dose: 100.0 mg/kg/injection, schedule: Q01DX009 (ip), vehicle: carboxymethylcellulose (CMC), evaluated on day 5) was 134 % of control. The T/C (dose: 100.0 mg/kg/injection, schedule: Q01DX009 (ip), vehicle: carboxymethylcellulose (CMC), evaluated on day 45) was 134 % of control, the T/C (dose: 100.0 mg/kg/injection, schedule: Q01DX009 (ip), vehicle: other) was 142 and 147 % of control and the T/C (dose: 100.0 mg/kg/injection, schedule: Q01DX009 (ip), vehicle: saline with Tween-80) was 139 % of control. The T/C (dose: 100.0 mg/kg/injection, schedule: Q01DX010 (ip), vehicle: clinical formulation) was 140 % of control, the T/C (dose: 100.0 mg/kg/injection, schedule: Q01DX Z (oral), vehicle: carboxymethylcellulose (CMC)) was 137 % of control and the T/C (dose: 100.0 mg/kg/injection, schedule: Q04DX003 (ip), vehicle: Klucel (hydroxypropylcellulose) (HPC)) was 100, 105, 106, 110, 111 % of control (2×). For the same molecule, the T/C (dose: 100.0 mg/kg/injection, schedule: Q04DX003 (ip), vehicle: water) was 126 % of control, the T/C (dose: 100.0 mg/kg/injection, schedule: Q## X009 (ip), vehicle: carboxymethylcellulose (CMC)) was 143 % of control and the T/C (dose: 105.0 mg/kg/injection, schedule: Q01DX015 (ip), vehicle: carboxymethylcellulose (CMC), evaluated on day 5) was 140 % of control.
